Data: PubChem BioAssay AID248 (DTP/NCI, 2004)
The list is a part of this screen's results and no random one: it gathers tests that were run many times, whatever their T/C, doses with no T/C, and many T/C values between a quarter and a half above the control. Other doses and runs of a compound stand elsewhere. T/C: endpoint of the treated group in % of that of the vehicle group. Some doses have a count of surviving animals in place of a T/C: the source holds a T/C of zero for them, seemingly a mark for toxic or unscored doses. Some survivor counts are full or nearly so, which does not show that the dose was tolerated: the source hardly ever lists a survival T/C far under the control, and the zero likely stands for such cases as well. Counts of survivors are from the toxicity check (mostly the fifth day) where no day follows; animals may have died later. Schedule codes are those of the source, taken here to give the interval after Q, in days (D) or hours (H), and the number of doses after X. Some entries were tested several times; their values stand side by side, smallest first. Some schedule codes hold Z or #, which are not explained here. For survival time, this PubChem deposit counts one and a half times the control or more as active, and values a quarter to a half above the control carry no call in these data; other NCI protocols may use other cut-offs.

System: L1210 leukemia ip in BDF1 mice, survival T/C
Assay: NCI In Vivo Anticancer Drug Screen. Data for tumor model L1210 Leukemia (intraperitoneal) in B6D2F1 (BDF1) mice
Conditions: T/C endpoint: mean survival time, higher T/C = longer survival
[1] = dose: 200.0 mg/kg/injection, schedule: Q01DX001 (ip), vehicle: saline with Tween-80
[2] = dose: 400.0 mg/kg/injection, schedule: Q01DX001 (ip), vehicle: saline with Tween-80
[3] = dose: 200.0 mg/kg/injection, schedule: Q04DX002 (ip), vehicle: Klucel (hydroxypropylcellulose) (HPC)
[4] = dose: 400.0 mg/kg/injection, schedule: Q01DX001 (ip), vehicle: carboxymethylcellulose (CMC)
[5] = dose: 400.0 mg/kg/injection, schedule: Q01DX001 (ip), vehicle: saline
[6] = dose: 200.0 mg/kg/injection, schedule: Q04DX003 (ip), vehicle: saline
[7] = dose: 400.0 mg/kg/injection, schedule: Q04DX003 (ip), vehicle: saline

Structure (SMILES): Cc1cc(Cl)ccc1OC(=O)Nc1cccc2ccccc12
- survivor count (dose: 400.0 mg/kg/injection, schedule: Q04DX002 (ip), vehicle: carboxymethylcellulose (CMC)): 6 of 6

Structure (SMILES): C[N+](C)(C)Cc1c[nH]c2ccsc12
- survivor count (dose: 25.0 mg/kg/injection, schedule: Q01DX001 (ip), vehicle: saline with Tween-80): 1 of 6
- survivor count (dose: 50.0 mg/kg/injection, schedule: Q01DX001 (ip), vehicle: saline with Tween-80): 2 of 6
- survivor count (dose: 100.0 mg/kg/injection, schedule: Q01DX001 (ip), vehicle: saline with Tween-80): 0 of 6
- survivor count [1]: 0 of 6
- survivor count [2]: 0 of 6

Structure (SMILES): O=C(O)c1ccccc1Cl.[Ni]
- survivor count (dose: 100.0 mg/kg/injection, schedule: Q04DX002 (ip), vehicle: Klucel (hydroxypropylcellulose) (HPC)): 0 of 3 and 3 of 3
- survivor count [3]: 0 of 3
- survivor count (dose: 400.0 mg/kg/injection, schedule: Q04DX002 (ip), vehicle: Klucel (hydroxypropylcellulose) (HPC)): 0 of 3

Structure (SMILES): CC(C)(CO)N=Cc1ccccc1O.CC(C)(CO)N=Cc1ccccc1O.[Co]
- survivor count (dose: 100.0 mg/kg/injection, schedule: Q01DX001 (ip), vehicle: saline): 1 of 6

Structure (SMILES): N#C/C(=C/c1ccccc1)C(=O)O
- survivor count [4]: 0 of 4

Structure (SMILES): CC(=O)Nc1ccc2c(c1)C(N(C)C)c1ccccc1-2 (centres undefined)
- survivor count (dose: 200.0 mg/kg/injection, schedule: Q01DX001 (ip), vehicle: carboxymethylcellulose (CMC)): 1 of 4
- survivor count [4]: 0 of 4

Structure (SMILES): NNC(=O)C(N)Cc1ccccc1 (centres undefined)
- survivor count [5]: 0 of 3

Structure (SMILES): O=C(O)C(O)CBr (centres undefined)
- survivor count (dose: 100.0 mg/kg/injection, schedule: Q04DX003 (ip), vehicle: saline): 3 of 6
- survivor count [6]: 0 of 6
- survivor count [7]: 0 of 6

Structure (SMILES): CC(=O)OC1CCCCC1NC(=O)N(CCCl)N=O (centres undefined)
- T/C (dose: 15.0 mg/kg/injection, schedule: Q01DX001 (ip), vehicle: carboxymethylcellulose (CMC)): 129 % of control
- survivor count (dose: 135.0 mg/kg/injection, schedule: Q01DX001 (ip), vehicle: carboxymethylcellulose (CMC)): 10 of 10

Structure (SMILES): Cc1cc(=O)c2cc(Cc3ccc4[nH]c(C)cc(=O)c4c3)ccc2[nH]1
- survivor count (dose: 50.0 mg/kg/injection, schedule: Q01DX009 (ip), vehicle: saline): 0 of 6
- survivor count (dose: 100.0 mg/kg/injection, schedule: Q01DX009 (ip), vehicle: saline): 0 of 6
- survivor count (dose: 200.0 mg/kg/injection, schedule: Q01DX009 (ip), vehicle: saline): 0 of 6 and 6 of 6

Structure (SMILES): Nn1c(=O)[nH][nH]c1=O
- survivor count (dose: 400.0 mg/kg/injection, schedule: Q01DX009 (ip), vehicle: Klucel (hydroxypropylcellulose) (HPC)): 0 of 6
- survivor count (dose: 400.0 mg/kg/injection, schedule: Q04DX003 (ip), vehicle: Klucel (hydroxypropylcellulose) (HPC)): 0 of 6

Structure (SMILES): O=C(Nc1ccc(S(=O)(=O)O)cc1)c1ccc(C(=O)Nc2ccc(S(=O)(=O)O)cc2)cc1
- survivor count (dose: 15.0 mg/kg/injection, schedule: Q01DX Z (ip), vehicle: saline): 2 of 6

Structure (SMILES): Nc1ccc(-c2ccccc2)cc1Br
- survivor count (dose: 60.0 mg/kg/injection, schedule: Q01DX001 (ip), vehicle: carboxymethylcellulose (CMC)): 2 of 6
- survivor count (dose: 75.0 mg/kg/injection, schedule: Q01DX001 (ip), vehicle: carboxymethylcellulose (CMC)): 0 of 6
- survivor count (dose: 150.0 mg/kg/injection, schedule: Q01DX001 (ip), vehicle: carboxymethylcellulose (CMC)): 0 of 6
- survivor count (dose: 300.0 mg/kg/injection, schedule: Q01DX001 (ip), vehicle: carboxymethylcellulose (CMC)): 0 of 6

Structure (SMILES): CN(Cc1ccccc1)C(=O)c1ccc(Cl)cc1
- survivor count [3]: 3 of 3

Structure (SMILES): O=S(=O)(Cl)OO/C=C\OOS(=O)(=O)Cl
- survivor count [5]: 0 of 6

Structure (SMILES): Cc1ccc(CNCC(=O)O)cc1
- survivor count (dose: 400.0 mg/kg/injection, schedule: Q04DX003 (ip), vehicle: water): 0 of 6

Structure (SMILES): N#CSc1ccc(NN)cc1
- survivor count (dose: 50.0 mg/kg/injection, schedule: Q01DX009 (ip), vehicle: saline with Tween-80): 3 of 6
- survivor count (dose: 50.0 mg/kg/injection, schedule: Q04DX003 (ip), vehicle: saline with Tween-80): 6 of 6
- survivor count (dose: 100.0 mg/kg/injection, schedule: Q01DX009 (ip), vehicle: saline with Tween-80): 0 of 6
- survivor count (dose: 100.0 mg/kg/injection, schedule: Q04DX003 (ip), vehicle: saline with Tween-80): 0 of 6 and 1 of 6
- survivor count (dose: 200.0 mg/kg/injection, schedule: Q04DX003 (ip), vehicle: saline with Tween-80): 0 of 6
- survivor count (dose: 400.0 mg/kg/injection, schedule: Q04DX003 (ip), vehicle: saline with Tween-80): 0 of 6

Structure (SMILES): Cc1nnc(Cl)c2ccccc12
- survivor count (dose: 200.0 mg/kg/injection, schedule: Q01DX001 (ip), vehicle: saline): 0 of 6
- survivor count [5]: 2 of 6

Structure (SMILES): NC(=S)N/N=C1/C(=O)c2cccc3cccc1c23
- survivor count (dose: 150.0 mg/kg/injection, schedule: Q01DX001 (ip), vehicle: other): 3 of 6
- survivor count (dose: 300.0 mg/kg/injection, schedule: Q01DX001 (ip), vehicle: other): 1 of 6

Structure (SMILES): NNc1ncnc2c(C3OC(CO)C(O)C3O)[nH]nc12 (centres undefined)
- T/C (dose: 75.0 mg/kg/injection, schedule: Q01DX009 (ip), vehicle: saline): 146 % of control
- T/C (dose: 100.0 mg/kg/injection, schedule: Q01DX005 (ip), vehicle: Klucel (hydroxypropylcellulose) (HPC)): 147 % of control
- T/C (dose: 100.0 mg/kg/injection, schedule: Q01DX005 (ip), vehicle: saline): 127, 130, 146 % of control
- T/C (dose: 100.0 mg/kg/injection, schedule: Q01DX009 (ip), vehicle: water): 130 % of control
- T/C (dose: 150.0 mg/kg/injection, schedule: Q01DX009 (ip), vehicle: water): 127 % of control
- T/C (dose: 200.0 mg/kg/injection, schedule: Q01DX005 (ip), vehicle: saline): 130 and 147 % of control
- T/C (dose: 200.0 mg/kg/injection, schedule: Q01DX009 (ip), vehicle: Klucel (hydroxypropylcellulose) (HPC)): 133 % of control
- survivor count (dose: 300.0 mg/kg/injection, schedule: Q01DX005 (ip), vehicle: saline): 1 of 6
- survivor count (dose: 300.0 mg/kg/injection, schedule: Q01DX009 (ip), vehicle: Klucel (hydroxypropylcellulose) (HPC)): 5 of 6
- survivor count (dose: 300.0 mg/kg/injection, schedule: Q01DX009 (ip), vehicle: saline): 2 of 10
- survivor count [7]: 5 of 10
- survivor count (dose: 400.0 mg/kg/injection, schedule: Q08DX002 (ip), vehicle: saline): 2 of 10

Structure (SMILES): C=C1C(=O)OC2C1CCC(C)=C1C(=O)C=C(C)C12 (centres undefined)
- survivor count (dose: 400.0 mg/kg/injection, schedule: Q04DX002 (ip), vehicle: saline): 3 of 3

Structure (SMILES): CCN(CC)CN(CC)CC
- survivor count (dose: 200.0 mg/kg/injection, schedule: Q04DX002 (ip), vehicle: saline with Tween-80): 3 of 3
- survivor count (dose: 400.0 mg/kg/injection, schedule: Q04DX002 (ip), vehicle: saline with Tween-80): 0 of 3

Structure (SMILES): C=CCCC1CC(C(C)C)CC2(C1)OCCO2 (centres undefined)
- survivor count (dose: 200.0 mg/kg/injection, schedule: Q01DX009 (ip), vehicle: saline with Tween-80): 3 of 3

Structure (SMILES): O=C(O)CC(CS(=O)O)C(=O)O (centres undefined)
- survivor count [1]: 1 of 3
- survivor count [2]: 0 of 3

Structure (SMILES): CNC1=C(C)C(=O)C2=C(C1=O)C(COC(N)=O)C1(O)C3C(CN21)N3C (centres undefined)
- survivor count (dose: 10.0 mg/kg/injection, schedule: Q01DX001 (ip), vehicle: alcohol): 5 of 6
- survivor count (dose: 23.0 mg/kg/injection, schedule: Q01DX001 (ip), vehicle: acetone): 1 of 6
- survivor count (dose: 35.0 mg/kg/injection, schedule: Q01DX001 (ip), vehicle: acetone): 1 of 6
- survivor count (dose: 50.0 mg/kg/injection, schedule: Q01DX001 (ip), vehicle: acetone): 1 of 6

Structure (SMILES): CCCCN(CCCC)CCCC#N
- survivor count [6]: 6 of 6
- survivor count [7]: 0 of 6

Structure (SMILES): CCCCN(CCCC)CC(O)c1cnc2c(Cl)cc(Cl)cc2c1Cl (centres undefined)
- survivor count (dose: 400.0 mg/kg/injection, schedule: Q01DX009 (ip), vehicle: saline with Tween-80): 4 of 6

Structure (SMILES): CCc1cc(O)c(Cl)c(C)c1Cl
- survivor count (dose: 200.0 mg/kg/injection, schedule: Q01DX009 (ip), vehicle: gum acacia): 5 of 6

Structure (SMILES): CN1CCCCC(=N\O)/C(=N/O)CCCC1
- survivor count [4]: 0 of 4
